Data from publication PMC6189496, “Epstein-Barr Virus Nuclear Antigen 3C Inhibits Expression of COBLL1 and the ADAM28-ADAMDEC1 Locus via Interaction with the Histone Lysine Demethylase KDM2B” (Journal of Virology, 2018).
Results are given in words; binding and its absence hold for the method and conditions named. In cells and extracts the contact can be indirect. Some results given as binding are weak or reduced against the parent protein; the word gives no strength. For some of these results: Where a sequence is shown, tags or fusion partners need not be part of it.

By UniProt entry, the sequences of proteins in these tests, tags left out.
UniProt Q15022: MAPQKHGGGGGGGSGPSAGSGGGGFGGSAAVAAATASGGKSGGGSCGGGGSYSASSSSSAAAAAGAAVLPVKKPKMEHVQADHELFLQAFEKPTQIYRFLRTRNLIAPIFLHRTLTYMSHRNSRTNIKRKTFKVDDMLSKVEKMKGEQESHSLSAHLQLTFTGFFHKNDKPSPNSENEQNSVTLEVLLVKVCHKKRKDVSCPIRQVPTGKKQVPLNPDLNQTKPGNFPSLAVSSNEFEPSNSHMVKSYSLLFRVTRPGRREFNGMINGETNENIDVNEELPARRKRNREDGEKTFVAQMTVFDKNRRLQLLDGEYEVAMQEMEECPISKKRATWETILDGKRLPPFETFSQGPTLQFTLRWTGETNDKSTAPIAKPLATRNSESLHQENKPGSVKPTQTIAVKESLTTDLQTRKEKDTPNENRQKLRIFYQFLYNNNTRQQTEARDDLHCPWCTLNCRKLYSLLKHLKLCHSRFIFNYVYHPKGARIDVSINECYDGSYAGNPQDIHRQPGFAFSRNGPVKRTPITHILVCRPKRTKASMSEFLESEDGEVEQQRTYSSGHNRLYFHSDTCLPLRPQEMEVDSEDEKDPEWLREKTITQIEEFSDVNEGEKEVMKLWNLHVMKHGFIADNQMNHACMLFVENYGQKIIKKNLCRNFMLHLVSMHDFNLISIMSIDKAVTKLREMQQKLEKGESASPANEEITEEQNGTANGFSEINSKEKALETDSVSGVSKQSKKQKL
UniProt P35226: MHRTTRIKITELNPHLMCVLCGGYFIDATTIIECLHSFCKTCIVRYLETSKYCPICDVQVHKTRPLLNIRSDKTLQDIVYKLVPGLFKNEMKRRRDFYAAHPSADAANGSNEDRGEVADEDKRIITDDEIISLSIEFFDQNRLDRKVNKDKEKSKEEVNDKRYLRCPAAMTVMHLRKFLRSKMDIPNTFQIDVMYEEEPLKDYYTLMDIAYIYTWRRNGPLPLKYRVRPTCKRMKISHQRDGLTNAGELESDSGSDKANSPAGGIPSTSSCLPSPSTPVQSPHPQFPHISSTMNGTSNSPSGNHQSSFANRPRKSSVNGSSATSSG
UniProt Q06330: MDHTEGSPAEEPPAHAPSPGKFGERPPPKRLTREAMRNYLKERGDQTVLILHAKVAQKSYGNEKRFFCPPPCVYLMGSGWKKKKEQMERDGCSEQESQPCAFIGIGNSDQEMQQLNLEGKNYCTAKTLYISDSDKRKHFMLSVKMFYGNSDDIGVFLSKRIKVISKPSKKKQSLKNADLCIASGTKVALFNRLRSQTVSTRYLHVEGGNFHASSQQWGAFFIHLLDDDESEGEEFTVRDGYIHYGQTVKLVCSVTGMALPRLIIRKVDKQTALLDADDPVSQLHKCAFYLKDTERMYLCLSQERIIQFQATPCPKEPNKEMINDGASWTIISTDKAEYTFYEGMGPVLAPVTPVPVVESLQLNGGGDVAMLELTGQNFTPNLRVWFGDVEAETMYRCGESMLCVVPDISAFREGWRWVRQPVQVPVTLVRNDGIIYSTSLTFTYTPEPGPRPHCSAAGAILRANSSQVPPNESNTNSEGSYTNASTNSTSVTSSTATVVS
UniProt P03204: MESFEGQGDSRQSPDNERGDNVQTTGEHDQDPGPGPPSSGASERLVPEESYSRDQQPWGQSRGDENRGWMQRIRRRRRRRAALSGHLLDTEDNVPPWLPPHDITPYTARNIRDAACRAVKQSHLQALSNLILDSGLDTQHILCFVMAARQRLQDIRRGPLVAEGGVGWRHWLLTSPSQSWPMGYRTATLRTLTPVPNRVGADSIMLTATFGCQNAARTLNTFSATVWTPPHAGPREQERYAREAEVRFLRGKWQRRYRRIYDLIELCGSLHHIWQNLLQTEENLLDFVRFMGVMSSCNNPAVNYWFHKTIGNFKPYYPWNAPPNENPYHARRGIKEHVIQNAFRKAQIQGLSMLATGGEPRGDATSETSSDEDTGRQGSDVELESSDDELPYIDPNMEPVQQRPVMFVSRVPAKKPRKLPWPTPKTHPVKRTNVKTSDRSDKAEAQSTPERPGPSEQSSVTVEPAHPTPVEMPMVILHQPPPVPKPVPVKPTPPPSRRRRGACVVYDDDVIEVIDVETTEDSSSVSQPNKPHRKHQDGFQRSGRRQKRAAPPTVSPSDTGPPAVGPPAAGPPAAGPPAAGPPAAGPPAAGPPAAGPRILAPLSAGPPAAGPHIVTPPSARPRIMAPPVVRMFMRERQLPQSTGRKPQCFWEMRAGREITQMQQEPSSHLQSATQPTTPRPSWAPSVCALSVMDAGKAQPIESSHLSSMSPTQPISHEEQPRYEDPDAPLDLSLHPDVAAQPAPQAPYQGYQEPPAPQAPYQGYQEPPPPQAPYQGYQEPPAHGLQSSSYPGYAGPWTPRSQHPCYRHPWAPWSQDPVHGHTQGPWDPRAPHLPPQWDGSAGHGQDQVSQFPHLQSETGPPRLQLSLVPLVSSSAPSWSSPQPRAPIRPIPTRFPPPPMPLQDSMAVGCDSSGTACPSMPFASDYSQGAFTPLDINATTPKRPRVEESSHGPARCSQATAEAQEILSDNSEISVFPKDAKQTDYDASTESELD

Experiments:
Experiment in all cases: co-IP; LCL extracts (10^7 cells lysed in IP buffer, precleared); the cellular protein (RBPJ, BMI1, SUZ12 or KDM2B) immunoprecipitated from 200 ug lysate overnight at 4°C, protein G-Sepharose, four washes; Western blot for EBNA3C; isotype IgG control; mutants quantified by ImageJ as percent relative IP compared to EBNA3C WT
[1] = biological target: SUZ12 (human (endogenous in LCLs)) (UniProt Q15022)
[2] = biological target: BMI1 (human (endogenous in LCLs)) (UniProt P35226)
[3] = biological target: T1, histone lysine demethylase KDM2B (human (endogenous in LCLs)) (UniProt Q8NHM5)
T1 sequence: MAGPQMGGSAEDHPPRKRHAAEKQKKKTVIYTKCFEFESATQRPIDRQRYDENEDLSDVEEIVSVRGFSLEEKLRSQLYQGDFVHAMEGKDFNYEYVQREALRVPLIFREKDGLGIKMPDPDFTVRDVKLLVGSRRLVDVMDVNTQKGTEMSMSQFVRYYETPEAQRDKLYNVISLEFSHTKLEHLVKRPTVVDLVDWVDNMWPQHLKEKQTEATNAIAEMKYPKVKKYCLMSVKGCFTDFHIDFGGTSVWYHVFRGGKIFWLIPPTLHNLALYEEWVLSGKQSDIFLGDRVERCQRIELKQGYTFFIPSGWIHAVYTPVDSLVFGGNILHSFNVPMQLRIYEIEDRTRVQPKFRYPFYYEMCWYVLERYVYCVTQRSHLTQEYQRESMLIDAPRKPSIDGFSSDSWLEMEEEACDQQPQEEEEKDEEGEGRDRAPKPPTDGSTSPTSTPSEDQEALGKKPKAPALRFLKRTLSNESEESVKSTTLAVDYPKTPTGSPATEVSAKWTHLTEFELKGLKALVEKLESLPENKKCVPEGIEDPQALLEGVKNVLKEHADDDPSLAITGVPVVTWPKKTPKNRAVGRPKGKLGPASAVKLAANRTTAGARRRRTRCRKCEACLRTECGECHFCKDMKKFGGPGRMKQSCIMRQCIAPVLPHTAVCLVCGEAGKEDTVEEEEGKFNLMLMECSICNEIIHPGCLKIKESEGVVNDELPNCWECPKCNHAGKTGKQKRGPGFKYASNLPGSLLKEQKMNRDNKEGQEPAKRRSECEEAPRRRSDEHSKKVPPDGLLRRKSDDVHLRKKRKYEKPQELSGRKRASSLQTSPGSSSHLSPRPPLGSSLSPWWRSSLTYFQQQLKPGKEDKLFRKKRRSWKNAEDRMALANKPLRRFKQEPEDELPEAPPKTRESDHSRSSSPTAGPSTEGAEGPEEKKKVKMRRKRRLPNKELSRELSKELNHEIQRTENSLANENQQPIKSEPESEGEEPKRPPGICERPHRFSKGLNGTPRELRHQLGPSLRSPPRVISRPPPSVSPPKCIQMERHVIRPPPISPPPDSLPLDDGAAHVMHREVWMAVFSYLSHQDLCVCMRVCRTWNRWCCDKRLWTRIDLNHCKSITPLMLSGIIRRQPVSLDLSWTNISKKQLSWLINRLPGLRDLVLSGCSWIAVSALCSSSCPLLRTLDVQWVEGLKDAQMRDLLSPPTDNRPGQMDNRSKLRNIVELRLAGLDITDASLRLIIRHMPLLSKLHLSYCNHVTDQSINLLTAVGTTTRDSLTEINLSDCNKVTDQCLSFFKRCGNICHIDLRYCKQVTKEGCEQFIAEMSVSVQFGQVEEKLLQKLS

[4] = biological target: RBPJ (human (endogenous in LCLs)) (UniProt Q06330)

Epstein-Barr virus nuclear antigen 3C (EBNA3C) wild type (from UniProt P03204 1-992)
binding [1]: no binding
binding [2]: binds
binding [3]: binds
binding [4]: binds
